Where a sequence shows no end group, the ends are not given.
Experiment: peptide synthesis
Settings: whole synthesis, head-to-tail ring, sequence written open

Sequence | outcome
GAAGAGLTFIFRLRKGRMMDVKKAG | Synthesis failed.
LTFIFRLRKGRMMDVKKAG | Synthesis failed.
LTFIFRLRKGRMMDVKKAGGAAG | Synthesis failed.

Source: patent US20240117005A1 (THE COUNCIL OF THE QUEENSLAND INSTITUTE OF MEDICAL RESEARCH, priority 2021, published 2024)
